Measurements as given in publication doi:10.1101/2023.09.12.557434.
Results are given in words; binding and its absence hold for the method and conditions named. For some assays here: Binding seen in cells or lysates may run through a third protein. Some results given as binding are weak or reduced against the parent protein; the word gives no strength. Tags and fused reporters may be left off the sequences shown.

Sequences of proteins named here, by UniProt entry; tags and fusion partners are left off.
UniProt P93002: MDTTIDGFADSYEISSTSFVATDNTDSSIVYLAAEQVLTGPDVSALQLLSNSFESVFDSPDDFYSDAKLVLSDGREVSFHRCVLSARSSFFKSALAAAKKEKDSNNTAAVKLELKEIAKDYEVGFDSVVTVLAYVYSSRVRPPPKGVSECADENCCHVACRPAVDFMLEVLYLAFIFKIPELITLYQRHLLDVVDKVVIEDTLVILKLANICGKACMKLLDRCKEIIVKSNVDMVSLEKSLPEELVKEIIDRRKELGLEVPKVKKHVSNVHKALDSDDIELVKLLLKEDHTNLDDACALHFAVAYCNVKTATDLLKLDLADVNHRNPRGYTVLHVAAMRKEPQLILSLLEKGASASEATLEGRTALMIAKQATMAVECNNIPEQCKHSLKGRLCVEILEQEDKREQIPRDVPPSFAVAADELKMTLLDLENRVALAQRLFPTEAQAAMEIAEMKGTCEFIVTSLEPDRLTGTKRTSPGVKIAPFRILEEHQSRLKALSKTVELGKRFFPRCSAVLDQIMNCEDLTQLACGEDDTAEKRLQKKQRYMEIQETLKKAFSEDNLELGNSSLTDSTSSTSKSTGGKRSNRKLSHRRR

T1: ICE1-Myc (35S:ICE1-Myc stable transgenic Arabidopsis) (Arabidopsis) (UniProt Q9LSE2)
T1 sequence: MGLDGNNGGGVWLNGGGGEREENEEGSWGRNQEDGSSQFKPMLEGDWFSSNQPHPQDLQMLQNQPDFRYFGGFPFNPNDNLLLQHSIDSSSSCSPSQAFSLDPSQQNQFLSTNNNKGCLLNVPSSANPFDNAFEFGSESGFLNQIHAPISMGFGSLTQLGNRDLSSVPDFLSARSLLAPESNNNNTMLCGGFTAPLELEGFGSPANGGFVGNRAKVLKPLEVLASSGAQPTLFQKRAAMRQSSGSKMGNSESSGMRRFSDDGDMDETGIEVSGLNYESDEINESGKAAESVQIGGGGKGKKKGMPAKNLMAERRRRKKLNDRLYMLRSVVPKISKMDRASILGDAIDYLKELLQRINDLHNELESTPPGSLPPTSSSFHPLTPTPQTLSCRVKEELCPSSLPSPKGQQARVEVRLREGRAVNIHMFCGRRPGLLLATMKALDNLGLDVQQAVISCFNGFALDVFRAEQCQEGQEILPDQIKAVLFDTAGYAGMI

T2: BD-TGA3 (full length, in pGBKT7) (Arabidopsis) (UniProt Q39234)
T2 sequence: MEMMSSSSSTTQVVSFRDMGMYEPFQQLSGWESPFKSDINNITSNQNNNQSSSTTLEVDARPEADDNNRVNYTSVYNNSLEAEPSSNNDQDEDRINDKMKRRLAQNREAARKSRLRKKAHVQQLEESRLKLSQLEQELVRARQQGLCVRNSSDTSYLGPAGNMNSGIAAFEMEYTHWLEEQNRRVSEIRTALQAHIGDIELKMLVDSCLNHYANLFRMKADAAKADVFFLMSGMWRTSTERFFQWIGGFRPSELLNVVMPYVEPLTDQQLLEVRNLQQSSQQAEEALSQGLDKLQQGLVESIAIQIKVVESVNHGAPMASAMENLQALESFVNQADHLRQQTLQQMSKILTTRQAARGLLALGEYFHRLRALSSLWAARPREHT

T3: TGA3-YFP (35S::TGA3-YFP, pEarleyGate101) (Arabidopsis) (UniProt Q39234)
T3 sequence: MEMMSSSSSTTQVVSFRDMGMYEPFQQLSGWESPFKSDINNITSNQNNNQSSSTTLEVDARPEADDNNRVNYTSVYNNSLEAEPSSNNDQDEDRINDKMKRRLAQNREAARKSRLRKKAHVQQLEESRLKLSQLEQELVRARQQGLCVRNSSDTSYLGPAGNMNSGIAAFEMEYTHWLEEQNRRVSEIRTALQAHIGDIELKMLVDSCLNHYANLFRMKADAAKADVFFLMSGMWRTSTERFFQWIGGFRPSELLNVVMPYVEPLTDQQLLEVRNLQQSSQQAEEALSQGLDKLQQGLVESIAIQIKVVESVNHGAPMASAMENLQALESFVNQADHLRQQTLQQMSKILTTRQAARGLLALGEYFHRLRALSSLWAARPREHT


Assays:
[1] = target: T1, ICE1-Myc (35S:ICE1-Myc stable transgenic Arabidopsis) (Arabidopsis); assay: co-IP
[2] = target: BD-NPR1 (Non-expresser of PR genes 1, full length, in pGBKT7) (Arabidopsis) (UniProt P93002); assay: two-hybrid
[3] = target: T2, BD-TGA3 (full length, in pGBKT7) (Arabidopsis); assay: two-hybrid
NPR1-cYFP (Arabidopsis) = NPR1-cYFP (Arabidopsis) (UniProt P93002); assay: split reporter
[4] = target: T3, TGA3-YFP (35S::TGA3-YFP, pEarleyGate101) (Arabidopsis); assay: co-IP
[5] = target: NPR1-YFP (35S::NPR1-YFP, pEarleyGate101) (Arabidopsis) (UniProt P93002); assay: co-IP

binding [2] | binding [3] | Molecule | other results
– | – | HA-NPR1 (35S:HA-NPR1 stable transgenic Arabidopsis) (from UniProt P93002 1-593) | binding [1]: binds
binds | binds | AD-ICE1^261-494 (domain or fragment, UniProt Q9LSE2 261-494) DGDMDETGIEVSGLNYESDEINESGKAAESVQIGGGGKGKKKGMPAKNLMAERRRRKKLNDRLYMLRSVVPKISKMDRASILGDAIDYLKELLQRINDLHNELESTPPGSLPPTSSSFHPLTPTPQTLSCRVKEELCPSSLPSPKGQQARVEVRLREGRAVNIHMFCGRRPGLLLATMKALDNLGLDVQQAVISCFNGFALDVFRAEQCQEGQEILPDQIKAVLFDTAGYAGMI | –
– | – | ICE1^261-494-nYFP (domain or fragment, UniProt Q9LSE2 261-494) DGDMDETGIEVSGLNYESDEINESGKAAESVQIGGGGKGKKKGMPAKNLMAERRRRKKLNDRLYMLRSVVPKISKMDRASILGDAIDYLKELLQRINDLHNELESTPPGSLPPTSSSFHPLTPTPQTLSCRVKEELCPSSLPSPKGQQARVEVRLREGRAVNIHMFCGRRPGLLLATMKALDNLGLDVQQAVISCFNGFALDVFRAEQCQEGQEILPDQIKAVLFDTAGYAGMI | binding (NPR1-cYFP (Arabidopsis)): binds
no binding | no binding | AD-ICE1^1-260 (domain or fragment, UniProt Q9LSE2 1-260) MGLDGNNGGGVWLNGGGGEREENEEGSWGRNQEDGSSQFKPMLEGDWFSSNQPHPQDLQMLQNQPDFRYFGGFPFNPNDNLLLQHSIDSSSSCSPSQAFSLDPSQQNQFLSTNNNKGCLLNVPSSANPFDNAFEFGSESGFLNQIHAPISMGFGSLTQLGNRDLSSVPDFLSARSLLAPESNNNNTMLCGGFTAPLELEGFGSPANGGFVGNRAKVLKPLEVLASSGAQPTLFQKRAAMRQSSGSKMGNSESSGMRRFSD | –
– | – | ICE1-Myc (35S::ICE1-Myc, pGWB517, in protoplasts) (protein, UniProt Q9LSE2 1-494) MGLDGNNGGGVWLNGGGGEREENEEGSWGRNQEDGSSQFKPMLEGDWFSSNQPHPQDLQMLQNQPDFRYFGGFPFNPNDNLLLQHSIDSSSSCSPSQAFSLDPSQQNQFLSTNNNKGCLLNVPSSANPFDNAFEFGSESGFLNQIHAPISMGFGSLTQLGNRDLSSVPDFLSARSLLAPESNNNNTMLCGGFTAPLELEGFGSPANGGFVGNRAKVLKPLEVLASSGAQPTLFQKRAAMRQSSGSKMGNSESSGMRRFSDDGDMDETGIEVSGLNYESDEINESGKAAESVQIGGGGKGKKKGMPAKNLMAERRRRKKLNDRLYMLRSVVPKISKMDRASILGDAIDYLKELLQRINDLHNELESTPPGSLPPTSSSFHPLTPTPQTLSCRVKEELCPSSLPSPKGQQARVEVRLREGRAVNIHMFCGRRPGLLLATMKALDNLGLDVQQAVISCFNGFALDVFRAEQCQEGQEILPDQIKAVLFDTAGYAGMI | binding [4]: binds; binding [5]: binds
